# According to publication PMC4735607, “Reversal of axonal growth defects in an extraocular fibrosis model by engineering the kinesin–microtubule interface” (Nature Communications, 2016):
# Protein sequences, listed by entry. Tags and fused reporters are not part of them. Lines headed by an entry give the natural chain unless they say otherwise; changes in a name come on top.
# UniProt P68363: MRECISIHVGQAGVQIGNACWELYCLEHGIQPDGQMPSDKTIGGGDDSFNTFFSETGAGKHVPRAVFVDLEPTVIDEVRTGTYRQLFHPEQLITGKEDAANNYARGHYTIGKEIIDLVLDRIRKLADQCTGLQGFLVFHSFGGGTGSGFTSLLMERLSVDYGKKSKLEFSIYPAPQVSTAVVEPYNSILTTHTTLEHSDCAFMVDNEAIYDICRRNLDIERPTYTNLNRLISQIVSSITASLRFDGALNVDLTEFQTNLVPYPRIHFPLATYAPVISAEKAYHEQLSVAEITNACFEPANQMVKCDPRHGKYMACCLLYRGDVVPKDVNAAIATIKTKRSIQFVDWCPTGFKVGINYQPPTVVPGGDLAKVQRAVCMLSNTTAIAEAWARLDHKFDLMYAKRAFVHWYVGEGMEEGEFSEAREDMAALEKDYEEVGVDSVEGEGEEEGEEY
# UniProt Q13509: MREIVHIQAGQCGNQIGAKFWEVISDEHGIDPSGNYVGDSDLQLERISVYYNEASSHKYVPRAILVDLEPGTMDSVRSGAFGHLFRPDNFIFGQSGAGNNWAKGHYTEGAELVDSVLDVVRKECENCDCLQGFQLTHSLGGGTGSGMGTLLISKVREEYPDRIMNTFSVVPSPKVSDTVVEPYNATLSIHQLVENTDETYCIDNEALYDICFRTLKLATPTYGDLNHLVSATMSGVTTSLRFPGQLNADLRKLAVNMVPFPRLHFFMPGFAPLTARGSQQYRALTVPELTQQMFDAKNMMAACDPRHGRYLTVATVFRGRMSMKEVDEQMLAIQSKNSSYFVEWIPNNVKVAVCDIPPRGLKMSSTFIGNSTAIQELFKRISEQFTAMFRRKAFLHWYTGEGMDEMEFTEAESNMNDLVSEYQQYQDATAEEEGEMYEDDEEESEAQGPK
# These are yes or no findings as the source states them, for the method shown. Some entries that bind do so weakly or less than the wild type. Sequences can lack the tags named with a protein.
# Assays:
# [1] = target: microtubules of recombinant human TUBA1B/TUBB3 tubulin, wild type (human) (UniProt P68363+Q13509); assay: single-molecule motility assay (total internal reflection fluorescence microscopy); KIF21A constructs on WT, R262A or R262H MTs; concentration not told; both purified
# [2] = target: microtubules of recombinant human TUBA1B/TUBB3 tubulin with TUBB3 R262A (human) (UniProt P68363+Q13509); assay: as above
binding [1],binding [2],Binder
binds,–,"dimeric kinesin construct KIF21A-552 (residues 1-552, SNAP tag, His6), wild type (domain or fragment, UniProt Q9QXL2 1-552, fluorescent dye BG-549 (SNAP-surface 549) on the SNAP tag) MLGAADESSVRVAVRIRPQLAKEKIEGCHICTSVTPGEPQVFLGKDKAFTFDYVFDIDSQQEQIYTQCIEKLIEGCFEGYNATVFAYGQTGAGKTYTMGTGFDVNIMEEEQGIISRAVRHLFKSIDEKKTSAIKNGLPPPEFKVNAQFLELYNEEVLDLFDTTRDIDAKNKKSNIRIHEDSTGGIYTVGVTTRTVNTEPEMMQCLKLGALSRTTASTQMNVQSSRSHAIFTIHVCQTRVCPQTDAENATDNKLISESSPMNEFETLTAKFHFVDLAGSERLKRTGATGERAKEGISINCGLLALGNVISALGDKSKRATHVPYRDSKLTRLLQDSLGGNSQTIMIACVSPSDRDFMETLNTLKYANRARNIKNKVMVNQDRASQQINALRSEITRLQMELMEYKTGKRIIDEEGVESINDMFHENAMLQTENNNLRVRIKAMQETVDALRARITQLVSEQANQVLARAGEGNEEISNMIHSYIKEIEDLRAKLLESEAVNENLRKNLTRATARSPYFSASSAFSPTILSSDKETIEIIDLAKKDLEKLKRKE"
–,binds,"D325R KIF21A, dimeric construct KIF21A-552 (residues 1-552, SNAP tag, His6) (domain or fragment, UniProt Q9QXL2 1-552, fluorescent dye BG-549 (SNAP-surface 549) on the SNAP tag) MLGAADESSVRVAVRIRPQLAKEKIEGCHICTSVTPGEPQVFLGKDKAFTFDYVFDIDSQQEQIYTQCIEKLIEGCFEGYNATVFAYGQTGAGKTYTMGTGFDVNIMEEEQGIISRAVRHLFKSIDEKKTSAIKNGLPPPEFKVNAQFLELYNEEVLDLFDTTRDIDAKNKKSNIRIHEDSTGGIYTVGVTTRTVNTEPEMMQCLKLGALSRTTASTQMNVQSSRSHAIFTIHVCQTRVCPQTDAENATDNKLISESSPMNEFETLTAKFHFVDLAGSERLKRTGATGERAKEGISINCGLLALGNVISALGDKSKRATHVPYRRSKLTRLLQDSLGGNSQTIMIACVSPSDRDFMETLNTLKYANRARNIKNKVMVNQDRASQQINALRSEITRLQMELMEYKTGKRIIDEEGVESINDMFHENAMLQTENNNLRVRIKAMQETVDALRARITQLVSEQANQVLARAGEGNEEISNMIHSYIKEIEDLRAKLLESEAVNENLRKNLTRATARSPYFSASSAFSPTILSSDKETIEIIDLAKKDLEKLKRKE"
